Source: ChEMBL document CHEMBL3988442, “University of Dundee, Small-Polar-MMV Screening Library” (2021).

By UniProt entry, the sequences of proteins in these tests, tags left out. Residues count along the entry.
UniProt A4I591, 1-473: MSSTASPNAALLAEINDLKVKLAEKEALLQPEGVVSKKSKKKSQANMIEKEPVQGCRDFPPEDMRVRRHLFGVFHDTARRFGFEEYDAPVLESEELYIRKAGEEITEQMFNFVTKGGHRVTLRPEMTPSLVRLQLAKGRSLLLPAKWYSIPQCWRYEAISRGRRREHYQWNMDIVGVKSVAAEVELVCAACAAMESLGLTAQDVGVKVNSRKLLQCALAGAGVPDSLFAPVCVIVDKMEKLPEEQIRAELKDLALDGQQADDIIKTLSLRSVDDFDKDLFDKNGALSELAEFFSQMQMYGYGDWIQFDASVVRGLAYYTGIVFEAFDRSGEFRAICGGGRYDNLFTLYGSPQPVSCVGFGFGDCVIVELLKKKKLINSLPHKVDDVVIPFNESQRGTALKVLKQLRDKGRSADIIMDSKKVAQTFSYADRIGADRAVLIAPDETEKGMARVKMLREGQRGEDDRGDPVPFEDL
UniProt P9WPC5, whole entry: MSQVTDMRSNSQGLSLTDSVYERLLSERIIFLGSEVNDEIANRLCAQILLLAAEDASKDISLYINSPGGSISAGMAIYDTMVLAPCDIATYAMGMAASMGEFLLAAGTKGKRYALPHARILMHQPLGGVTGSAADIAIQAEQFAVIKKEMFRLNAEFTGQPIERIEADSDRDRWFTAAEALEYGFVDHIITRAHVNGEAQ
UniProt P9WPC3, whole entry partner: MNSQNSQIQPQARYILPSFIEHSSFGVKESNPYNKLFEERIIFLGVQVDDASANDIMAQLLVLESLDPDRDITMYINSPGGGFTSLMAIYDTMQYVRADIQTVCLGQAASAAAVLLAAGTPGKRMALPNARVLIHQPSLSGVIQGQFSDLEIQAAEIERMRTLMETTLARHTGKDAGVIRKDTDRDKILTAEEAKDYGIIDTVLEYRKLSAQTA

LiHisRS: 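Enzyme assay of histidyl-tRNA synthetase; the read-out is not stated. Target: Histidine-tRNA ligase, Leishmania infantum (UniProt A4I591). Compounds at 30 µM. Direction is inferred from retests: higher values go with stronger inhibition. The assay is labelled LdHisRS but filed under L. infantum. About 69,000 compounds were tested under these conditions; 0.6% (about 410) showed 50% or more at least once.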
Toxoplasma: 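Assay of Toxoplasma gondii numbers, read through their beta-galactosidase reporter with a colour substrate. Concentration: 10 µM. The record gives no direction; the compounds picked for IC50 retests had high values, so higher reads as fewer parasites. Of about 67,000 compounds tested this way, about 260 (0.38%) reached 50% or more in at least one test.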
ClpP1P2: 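Protease assay of ClpP1P2, read by the AMC dye that it sets free. Target: ClpP1P2, Mycobacterium tuberculosis (UniProt P9WPC5 and UniProt P9WPC3). Tested at 50 µM. Higher reads as stronger inhibition, judged from the few compounds that gave an IC50. Most other retested compounds had strongly negative values. Size under these conditions: about 69,000 compounds, about 10 of them at 50% or above in at least one test.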
T. brucei: 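Whole-parasite assay of Trypanosoma brucei over 72 hours; the read-out is not stated. Concentration: 30 µM. Higher reads as stronger inhibition (inferred: compounds with an IC50 in retests scored well above the rest). Values scatter widely below zero; nearly all retest evidence comes from the higher of the two concentrations used. About 64,000 compounds were tested under these conditions; 1.5% (about 940) showed 50% or more at least once.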
Leishmania in macrophages: 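Cell assay of Leishmania donovani living inside macrophages; the read-out is not stated. Tested at 30 µM. Direction is inferred from retests: higher values go with stronger inhibition. Of about 69,000 compounds tested this way, about 1,000 (1.5%) reached 50% or more in at least one test.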

Results are given as percent effect. The controls that fix the scale are not given in the record; negative values are as filed. This is an unselected part of the compounds tested. Two or more numbers in one place are separate tests of the same structure; such repeats can differ widely. A dash means the value is not listed here; it may have been measured.

Compound,LiHisRS,Toxoplasma,ClpP1P2,T. brucei,Leishmania in macrophages
CCC(=O)NC(CC)c1ccccc1C (centres undefined),-1.176,-6.452,-11.76,-9.775,22.81
COc1ccc(C)cc1C(C)NCc1cccn1C (centres undefined),9.639,-4.287,-6.458,15.57,-0.376
CNc1oc(-c2ccc(OC)c(S(=O)(=O)N(C)C)c2)nc1C#N,0,8.057,-9.04,-,9.004
CCc1cc(NCc2ccccc2CN2CCCC2)n2ncnc2n1,17.14,0.7541,-9.084,-31.73,39.06
CC(Oc1cccc(Cl)c1)C(=O)Nc1cnn(CC(=O)NC2CC2)c1 (centres undefined),12.4,-1.169,-3.54,-8.221,3.576
O=c1cc2c(nn1CN1CCN(c3ccccc3)CC1)CCCC2,17.95,1.803,-5.861,-43.04,-4.501 & 10.37
CS(=O)(=O)NC[C@]12COC[C@H]1CN(C(=O)C1CC=CC1)C2,-44.55,-,-5.766,-,-
CC(NCCCc1cnn(C)c1)c1ccc(Cl)s1 (centres undefined),5.263,0.9604,4.39,-15.84,24.05
O=C(O)C(F)(F)F.O=C(c1cccnc1)N1CCC2(CCN(C(=O)c3ccco3)CC2)C1,-,-24.73,-,-48.09,24.84
C[C@H](N)Cn1nc(-c2cccs2)oc1=O,10,-,-11.88,-,-
CC[C@H]1CN(C(=O)c2cccnc2)CC[C@H]1CC(=O)NC1CC1,25,5.019,-1.106,2.604,11.71
[H][C@@]12COC[C@]1(c1nnc(C3CC3)o1)CN(C(=O)CS(C)(=O)=O)C2,-,3.419,-,-12.03,6.501
O=C1CC[C@H]2[C@H](CCN2C(=O)C2CCOCC2)N1Cc1ccncc1,17.48,-,3.791,-,-
CC(C(=O)NC(C)(C)C)S(=O)(=O)Cc1noc(C(C)(C)C)n1 (centres undefined),14.29,-11.57,7.033,-48.09,15.79
O=C(NCCO)c1ccn(-c2ccc3ccccn23)n1,29.41,-8.861,12.01,-24.62,0.2562
CC(C)NC(=O)N1CCOC2(CCCN(c3cccc(C#N)c3)C2)C1 (centres undefined),24.79,-18.56,3.574,-,8.364
Cc1ccc(C(=O)NCCCNc2ccc(C(F)(F)F)cn2)cc1,14.68,-0.2848,-35.48,-,23.85
CN(C)Cc1ccccc1Cn1cncc1-c1cnn(C)c1,12.77,-4.085,-18.08,-14.08,37.33
COC(=O)c1cnc2c(c(C)nn2C)c1OC,-11.88,68.54,-2.977,-7.753,28.53
Cc1cc(C)c(CNC(=O)NCCc2cccnc2)c(=O)[nH]1,-4.396,-3.64,0.5206,-56.11,-3.236
Cc1nn(C)c(N(C)C)c1CNCc1cccc(Br)c1,14.75,11.54,1.059,-23.37,9.091
Cc1cnc(CNC(=O)CCCn2cnc3ccccc3c2=O)cn1,5.495,33.4,25.04,-40.82,46.18
Cc1ccc(CN2CCc3ncnc(-c4ccc(F)cc4)c3CC2)o1.O=C(O)C(F)(F)F,-,1.709,-,-69.41,-11.53
O=C(c1ccn(COc2ccc(F)cc2)n1)N1CCCCCC1,3.448,-55.69,-12.83,-22.4,-66.53
Cc1occc1C(=O)N1CCOCC2(CCN(Cc3nccs3)C2)C1.O=C(O)C(F)(F)F (centres undefined),-,15.26,-,-18.85,-12.1
COCC1Cn2nnc(-c3cnn(C)c3)c2CN1Cc1ccoc1.O=C(O)C(F)(F)F (centres undefined),-,7.711,-,-4.317,6.631
CC(C)c1nn(C)c(N(C)C)c1CNC1CCOc2ccccc21 (centres undefined),10.71,10.11,11.49,-51.78,16.72
Cc1cc2n(n1)[C@@H](C(F)(F)F)C[C@@H](C1CCN(C(=O)C(C)C)CC1)N2,24.21,-8.811,3.616,-14.03,12.8 & 32.18
CS(=O)(=O)CCCSCc1ccc(Br)c(F)c1,4.839,0.3045,-5.56,-11.02,-50.69
CC(=O)N[C@@H]1CN(Cc2ccc(F)cc2F)C[C@H]1c1ccc(C)o1,-7.143,0.4994,-6.199,-62.33,30.69
OCCOCc1n[nH]c2c1CN(Cc1cccs1)C2,15.79,8.819,-0.8547,-40.97,36.74 & 11.89
Cc1ccc(C(=O)Nc2cc(F)ccc2OCC2CCCO2)cn1 (centres undefined),11.57,2.085,-10.94,25.51,7.564
COCCOc1cccc(C(=O)N2CCCCC2c2nccs2)c1 (centres undefined),4.386,10.88,-28.5,-19.53,9.894
CC(C)NC(=O)C[C@H]1[C@H]2CN(C(=O)Cc3ccccn3)C[C@@H]12,21.05,-,-2.611,-,-
Cc1noc(C)c1CN1CCN(Cc2cccnc2)c2ncccc2C1.O=C(O)C(F)(F)F.O=C(O)C(F)(F)F.O=C(O)C(F)(F)F,-,-5.363,-,-27.45,57.48
Cc1noc(C(C)N2CCc3[nH]c4ccc(Cl)cc4c3C2)n1 (centres undefined),26.53,14.41,-9.399,-13.56,-28.07
CCCN1CCN(C(=O)c2cnccc2C)[C@H]2CS(=O)(=O)C[C@H]21,19.44,-,0.4252,-,-